# Measured values from PubChem BioAssay AID662 (National Center for Advancing Translational Sciences (NCATS), 2007).
# Values joined by “and” are separate entries in the source; they are usually repeats but may differ in a detail not shown here. Equal entries are not always repeated. The list shows a part of the results. These are further read-outs of the screen, such as a control signal, another cell line or another target. No call is given for them. Most of these compounds were active or inconclusive in the main read-out, so they are no random draw. Potencies come from curve fits of mixed quality, noted in brackets.
# Experiment: Cell signaling CRE-BLA (Fsk stim)
# Conditions: CHO CRE-bla reporter (cAMP response element driving beta-lactamase), forskolin EC10, beta-lactamase ratio; measured here: 460 nm blue channel
# In short: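 Modulation of forskolin-driven signalling is measured in CHO cells carrying a CRE-controlled beta-lactamase reporter. Cells are stimulated with EC10 NKH 477 in the presence of titrated compound for 3 h at 37 °C, then loaded with CCF4 for 2 h at room temperature.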
row,SMILES,AC50
1,CCN1C(=O)c2cccc3c(NC(=O)C4CCCCC4)ccc1c23,"7.94 µM [rising, partial curve]"
2,CCNc1ncc2nc(-c3ccc(Cl)cc3)c(=O)n(C[C@H]3CCCO3)c2n1,"10 µM [rising, partial curve]"
3,Cn1cccc1C(=O)N1CCC2(CCCN(C(c3ccccc3)c3ccccc3)C2)CC1,"3.98 µM [rising, partial curve]"
4,Cc1ccc(C)c(S(=O)(=O)NCCOC(=O)Nc2sc(=S)n(C)c2C)c1,"0.398 µM [rising, full curve]"
5,COc1cc(OC)nc(NC(=O)CN2CCN(c3ccc(F)cc3)CC2)n1,"3.98 µM [falling, partial curve]"
6,COCCn1c(=O)c(-c2cc(F)cc(F)c2)nc2cnc(N(C)C)nc21,"12.6 µM [rising, partial curve]"
7,COC(=O)c1cccc(CSc2nnc(C)s2)c1,"25.1 µM [rising, single point]"
8,CC(OC(=O)c1nn(C)c(=O)c2ccccc12)C(=O)NCc1ccc2c(c1)OCO2 (stereo unspecified),"12.6 µM [rising, single point]"
9,Cc1cc(C)nc(Sc2c(C)nn(-c3ccccc3)c2C)n1,"6.31 µM [falling, partial curve, poor fit]"
10,CCOc1ccc(NC(=O)C(CC)NC(=O)c2ccccc2CO)cc1 (stereo unspecified),"0.126 µM [rising, full curve]"
11,CCOC(=O)C1CCN(C(=O)c2cc3cc4cc(OC)ccc4nc3o2)CC1,"1.26 µM [rising, full curve]"
12,N=c1c(C(=O)NCc2ccco2)cc2c(=O)n3ccccc3nc2n1Cc1ccccc1,"12.6 µM [rising, partial curve]"
13,CCc1cc(C(=O)Cc2ccc(F)cc2)c(O)cc1O,"20 µM [falling, single point]"
14,CC(=O)N1C2(C=CC1(C)C(=O)NCc1ccc(C)o1)CCCCC2 (stereo unspecified),"12.6 µM [falling, single point]"
15,Cc1cc(NC(=O)c2noc3c2CCCC3)nn1Cc1ccc(Cl)cc1,"7.94 µM [rising, partial curve, poor fit]"
16,Cc1nnc(SCc2cc(=O)n3[nH]cnc3n2)s1,"25.1 µM [rising, single point]"
17,CCOCCCNC(=O)CCNS(=O)(=O)c1ccc(C)cc1,"20 µM [falling, single point]"
18,COc1ccc(CCNC(=O)CCCn2c(SCC#N)nc3ccccc3c2=O)cc1OC,"10 µM [rising, partial curve, poor fit]"
19,C=CCn1c(=O)c(C(=O)Nc2ccccc2OC)c(O)c2ccccc21,"1 µM [falling, partial curve]"
20,COc1ccc(S(=O)(=O)N2CCN(c3ccc4nnc(-c5ccc(F)cc5)n4n3)CC2)cc1,"10 µM [rising, partial curve]"
21,COc1ccc(C[C@H](C)NC[C@@H](O)c2ccc(O)c(NC=O)c2)cc1,"31.6 µM [falling, partial curve, poor fit]"
22,COC(=O)c1ccc(COc2ccc(C3C4=C(CCCC4=O)Nc4onc(C)c43)cc2)cc1 (stereo unspecified),"7.94 µM [rising, partial curve]"

row,SMILES,AC50
1,COc1nccc(Nc2ccccc2)c1C#N,"25.1 µM [rising, single point]"
2,CC(=O)N1CCc2cc(S(=O)(=O)NC(C(=O)Nc3nc(C)cs3)C(C)C)ccc21 (stereo unspecified),"0.0158 µM [falling, full curve, poor fit]"
3,CCOC(=O)c1c(C)[nH]c(C(=O)COC(=O)c2ccccc2NC(=O)c2ccco2)c1C,"1.58 µM [rising, full curve]"
4,CCOC(=O)c1ccc(N=c2sc(C(=O)OC)cc(=O)n2CCCN2CCOCC2)cc1,"12.6 µM [falling, partial curve]"
5,COc1cc2cc(C(=O)Nc3ccccc3)c(N)nc2cc1OC,"2 µM [rising, full curve]"
6,Cc1ccc(NC(=O)c2ccccc2)s1,"0.01 µM [rising, full curve, poor fit]"
7,O=S(=O)(NC1CCCCC1NS(=O)(=O)c1ccc(F)cc1)c1ccc(F)cc1 (stereo unspecified),"0.00398 µM [falling, full curve, poor fit]"
8,COc1ccc2[nH]cc(CCNc3nc(-c4ccc(N(C)C)cc4)nc4ccccc34)c2c1,"1 µM [rising, full curve]"
9,N#C[C@@H](Cc1ccc(O)c(O)c1)C(=O)N1CCc2ccccc21,"7.94 µM [falling, full curve]"
10,Cc1cccc(-c2nsc(SCC(=O)Nc3cc(C)on3)n2)c1,"2.51 µM [rising, partial curve]"
11,COC(=O)C1C(=O)C2=C(CC1C)NC(=O)CC2c1cccc(C)c1 (stereo unspecified),"0.0794 µM [rising, full curve]"
12,CS(=O)(=O)c1ccc(Cl)c(NC(=O)COC(=O)CNC(=O)c2ccc(Br)o2)c1,"0.01 µM [falling, full curve, poor fit]"
13,CCNc1ncc2nc(-c3cc(F)cc(F)c3)c(=O)n(Cc3cccs3)c2n1,"0.631 µM [rising, full curve]"
14,COc1ccccc1Nc1nc(N)nc(CSCCO)n1,"12.6 µM [falling, partial curve, poor fit]"
15,CN(C)C(=O)c1ccc(-c2nccc(-n3ccnc3)n2)cc1,"3.98 µM [rising, single point]"
16,COC(=O)C1=C(C)N(C)C(C)=C(C(=O)OC)C1c1ccccc1C,"15.8 µM [rising, single point]"
17,CCNc1nc(NCC)nc(OCCNS(=O)(=O)c2cc(C)ccc2C)n1,"10 µM [rising, partial curve]"
18,Cc1occc1C(=O)Nc1nccs1,"10 µM [falling, single point]"
19,CCOC(=O)C1CCCN(c2cc(C)nc3cc(-c4ccc(F)cc4)nn23)C1 (stereo unspecified),"20 µM [rising, partial curve]"
20,Cc1ccc(C)c(NC(=O)CSc2nnc(CCCCCNC(=O)OC(C)(C)C)o2)c1,"20 µM [falling, single point]"
21,Cc1ccc(N2C(=O)c3oc4ccccc4c(=O)c3C2c2cccc(O)c2)nc1 (stereo unspecified),"25.1 µM [falling, single point]"
22,CCOC(=O)c1cnn(-c2cc(C)nc3c(-c4ccccc4)cnn23)c1N,"12.6 µM [falling, partial curve]"

row,SMILES,AC50
1,Cc1cccc(-n2ncc3c(NC4CCCCC4)ncnc32)c1,"7.94 µM [rising, partial curve]"
2,COc1cc2c(cc1OC)-c1cc(NC3CCCCC3)nc(=O)n1CC2,"2.51 µM [rising, full curve]"
3,Fc1cccc(CSc2ncnc3c2oc2ccccc23)c1,"1.26 µM [rising, partial curve]"
4,CCCn1c(=O)c(C(=O)NCc2ccc(OC)c(OC)c2)c(O)c2ccccc21,"2.51 µM [rising, partial curve]"
5,CCOC(=O)CSc1nc2c(c(=O)n(Cc3ccccc3Cl)c(=O)n2C)n1C,"20 µM [falling, single point]"
6,CCCCCCN(C(=O)CCCCCN1C(=O)NC(c2ccc(C(C)(C)C)cc2)C(C(=O)OCc2ccccc2)=C1C)C(C(=O)NCCCC)c1ccc(OCC(=O)OC)c(C(=O)OC)c1 (stereo unspecified),"3.16 µM [rising, single point]"
7,Cc1ccc2cc3cc(C(=O)NCc4ccco4)oc3nc2c1,"0.00398 µM [falling, full curve, poor fit]"
8,O=C(O)C1(c2cccc(Cl)c2)CCC1,"0.1 µM [falling, full curve]"
9,CCn1c(SCC(=O)N2CCCc3ccccc32)nc2c1c(=O)n(C)c(=O)n2C,"10 µM [rising, single point]"
10,Brc1c(NC2=NCCN2)ccc2nccnc12,"25.1 µM [rising, partial curve] and 20 µM [rising, partial curve, poor fit]"
11,CCOC(=O)COc1cc2c3c(c(=O)oc2cc1C)CCCC3,"0.0158 µM [falling, full curve, poor fit]"
12,Cc1nc(SCC(=O)Nc2cc(C)on2)c2c(=O)n(C)c(=O)n(C)c2n1,"2 µM [rising, full curve]"
13,Cc1ccc(S(=O)(=O)N2CC(O)CC2C(=O)Nc2ccc3c(c2)CCC3)cc1 (stereo unspecified),"0.00316 µM [falling, full curve, poor fit]"
14,COc1cccc(-c2cc(C(F)(F)F)nc(N3CCCCC3)n2)c1,"12.6 µM [rising, single point]"
15,COc1ccc(NC(=O)CCCCn2c(=O)[nH]c3ccccc3c2=O)cc1,"2 µM [rising, full curve, poor fit]"
16,Cc1c(NC(=O)CC(=O)Nc2c(C)n(C)n(-c3ccccc3)c2=O)c(=O)n(-c2ccccc2)n1C,"10 µM [rising, partial curve]"
17,CN(C)c1ccc(-c2ccc3ncnc(N(C)C)c3c2)cc1,"12.6 µM [rising, partial curve]"
18,CC(C)c1nc2sc3c(SCC(=O)NCc4ccco4)ncnc3c2c2c1CCC2,"12.6 µM [rising, single point]"
19,COc1cc(C2N=C(c3ccccc3)NO2)cc(Br)c1O (stereo unspecified),"3.98 µM [falling, single point]"
20,O=c1n(Cc2ccc(Cl)cc2)c2sc3c(c2c2ncnn12)CCCC3,"3.98 µM [rising, partial curve]"
21,Cc1ccccc1NS(=O)(=O)c1ccc(C2CNC(=O)C2)cc1 (stereo unspecified),"12.6 µM [rising, partial curve]"
22,COc1ccc(C(=O)N2CCCC(c3nc(-c4ccc(OC)c(OC)c4)no3)C2)c(OC)c1 (stereo unspecified),"10 µM [rising, partial curve]"

# No new results follow: an excerpt of the list.
row,SMILES,AC50
22,CCOC(=O)c1cnn(-c2cc(C)nc3c(-c4ccccc4)cnn23)c1N,"12.6 µM [falling, partial curve]"
1,Cc1cccc(-n2ncc3c(NC4CCCCC4)ncnc32)c1,"7.94 µM [rising, partial curve]"
2,COc1cc2c(cc1OC)-c1cc(NC3CCCCC3)nc(=O)n1CC2,"2.51 µM [rising, full curve]"
3,Fc1cccc(CSc2ncnc3c2oc2ccccc23)c1,"1.26 µM [rising, partial curve]"
4,CCCn1c(=O)c(C(=O)NCc2ccc(OC)c(OC)c2)c(O)c2ccccc21,"2.51 µM [rising, partial curve]"
